Reference: patent US20210268056A1, “TAXODIONE FOR ITS USE FOR PROTECTING MUSCLE AND MEAT FROM OXIDATION” (CENTRE NATIONAL DE LA RECHERCHE SCIENTIFIQUE, priority 2018, published 2021)

Columns and labels:
[1] = test system: minced gastrocnemius muscles from C57BL/6 male mice; assay: Protein oxidation (total thiols) in minced mouse meat during refrigerated storage; conditions: FIG. 5B
[2] = test system: minced gastrocnemius muscles from C57BL/6 male mice; assay: Lipid oxidation (TBARS) in minced mouse meat during refrigerated storage; conditions: BHT 0.010-0.0025%, FIG. 5A
[3] = day 0, CA and TX 0.015-0.00375% w/w minced muscle
[4] = day 7 of storage at 4° C., CA and TX 0.015-0.00375% w/w

Structure (SMILES)	thiol level in meat, control versus treated ([1]; after 7 days of storage, 0.01% BHT)	TBARS values versus control [2, 3]	TBARS values versus control [2, 4]	total thiol level versus control ([1]; day 0, highest TX concentration (0.015%))
Cc1cc(C(C)(C)C)c(O)c(C(C)(C)C)c1 [BHT, butylated hydroxytoluene]	but not	significantly lower	remained lower than in control	–
CC(C)c1cc2c(c(O)c1O)[C@@]1(C(=O)O)CCCC(C)(C)[C@@H]1CC2 [CA, carnosic acid]	–	significantly lower	remained lower than in control	–
CC(C)C1=CC2=CC(=O)[C@H]3C(C)(C)CCC[C@]3(C)C2=C(O)C1=O [taxodione, (4bS,8aS)-4b,5,6,7,8,8a-hexahydro-4-hydroxy-2-isopropyl-4b,8,8-trimethylphenanthrene-3,9-dione]	–	significantly lower	remained lower than in control	significantly lower

Some entries repeat one wording, which the source may state once for all of them.
